From article PMC4632068

By UniProt entry, the sequences of proteins in these tests, tags left out.
UniProt P07260: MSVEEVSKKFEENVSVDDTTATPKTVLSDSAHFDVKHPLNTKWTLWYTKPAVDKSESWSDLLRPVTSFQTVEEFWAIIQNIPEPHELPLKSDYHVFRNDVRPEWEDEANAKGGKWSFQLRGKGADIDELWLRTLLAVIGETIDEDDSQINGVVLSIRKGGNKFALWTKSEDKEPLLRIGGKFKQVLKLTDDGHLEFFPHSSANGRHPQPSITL
UniProt P25491: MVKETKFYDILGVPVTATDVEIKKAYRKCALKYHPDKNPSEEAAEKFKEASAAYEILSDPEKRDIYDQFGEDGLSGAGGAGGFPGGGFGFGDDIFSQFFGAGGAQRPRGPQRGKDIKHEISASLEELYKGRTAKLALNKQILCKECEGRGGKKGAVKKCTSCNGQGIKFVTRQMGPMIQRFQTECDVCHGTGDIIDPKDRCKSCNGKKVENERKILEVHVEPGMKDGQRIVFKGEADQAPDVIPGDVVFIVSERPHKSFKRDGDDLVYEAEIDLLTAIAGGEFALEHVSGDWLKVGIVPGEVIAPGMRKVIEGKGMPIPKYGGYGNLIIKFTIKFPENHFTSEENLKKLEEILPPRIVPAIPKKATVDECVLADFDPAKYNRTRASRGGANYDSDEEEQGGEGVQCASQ

T1: Dhh1−GFP (S. cerevisiae (endogenous in BY4741-derived yeast)) (UniProt P39517)
T1 sequence: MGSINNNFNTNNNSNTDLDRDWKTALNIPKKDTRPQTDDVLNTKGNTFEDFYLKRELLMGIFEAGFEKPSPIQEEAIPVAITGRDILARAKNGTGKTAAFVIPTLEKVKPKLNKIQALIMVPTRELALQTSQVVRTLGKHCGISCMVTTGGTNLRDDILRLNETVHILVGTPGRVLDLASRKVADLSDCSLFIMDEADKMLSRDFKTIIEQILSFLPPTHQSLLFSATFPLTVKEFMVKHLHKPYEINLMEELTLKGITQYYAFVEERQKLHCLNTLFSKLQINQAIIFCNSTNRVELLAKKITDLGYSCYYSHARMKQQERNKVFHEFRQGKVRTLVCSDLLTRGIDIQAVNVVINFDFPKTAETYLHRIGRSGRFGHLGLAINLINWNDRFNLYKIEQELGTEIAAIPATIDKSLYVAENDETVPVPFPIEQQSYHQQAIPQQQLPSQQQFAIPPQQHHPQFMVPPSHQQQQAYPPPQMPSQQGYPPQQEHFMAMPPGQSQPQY

T2: Dhh1−GFP (S. cerevisiae (endogenous in BY4741-derived yeast)), P39517
T2 chain: T1 sequence

B1: Dcp1 (protein, UniProt Q12517 1-231)
chain: MTGAATAAENSATQLEFYRKALNFNVIGRYDPKIKQLLFHTPHASLYKWDFKKDEWNKLEYQGVLAIYLRDVSQNTNLLPVSPQEVDIFDSQNGSNNIQVNNGSDNSNRNSSGNGNSYKSNDSLTYNCGKTLSGKDIYNYGLIILNRINPDNFSMGIVPNSVVNKRKVFNAEEDTLNPLECMGVEVKDELVIIKNLKHEVYGIWIHTVSDRQNIYELIKYLLENEPKDSFA
B2: Dcp2, P53550 1-970 (protein)
chain: MSLPLRHALENVTSVDRILEDLLVRFIINCPNEDLSSVERELFHFEEASWFYTDFIKLMNPTLPSLKIKSFAQLIIKLCPLVWKWDIRVDEALQQFSKYKKSIPVRGAAIFNENLSKILLVQGTESDSWSFPRGKISKDENDIDCCIREVKEEIGFDLTDYIDDNQFIERNIQGKNYKIFLISGVSEVFNFKPQVRNEIDKIEWFDFKKISKTMYKSNIKYYLINSMMRPLSMWLRHQRQIKNEDQLKSYAEEQLKLLLGITKEEQIDPGRELLNMLHTAVQANSNNNAVSNGQVPSSQELQHLKEQSGEHNQQKDQQSSFSSQQQPSIFPSLSEPFANNKNVIPPTMPMANVFMSNPQLFATMNGQPFAPFPFMLPLTNNSNSANPIPTPVPPNFNAPPNPMAFGVPNMHNLSGPAVSQPFSLPPAPLPRDSGYSSSSPGQLLDILNSKKPDSNVQSSKKPKLKILQRGTDLNSIKQNNNDETAHSNSQALLDLLKKPTSSQKIHASKPDTSFLPNDSVSGIQDAEYEDFESSSDEEVETARDERNSLNVDIGVNVMPSEKDSRRSQKEKPRNDASKTNLNASAESNSVEWGPGKSSPSTQSKQNSSVGMQNKYRQEIHIGDSDAYEVFESSSDEEDGKKLEELEQTQDNSKLISQDILKENNFQDGEVPHRDMPTESNKSINETVGLSSTTNTVKKVPKVKILKRGETFASLANDKKAFDSSSNVSSSKDLLQMLRNPISSTVSSNQQSPKSQHLSGDEEIMMMLKRNSVSKPQNSEENASTSSINDANASELLGMLKQKEKDITAPKQPYNVDSYSQKNSAKGLLNILKKNDSTGYPRTEGGPSSEMSTSMKRNDATNNQELDKNSTELLNYLKPKPLNDGYENISNKDSSHELLNILHGNKNSSAFNNNVYATDGYSLASDNNENSSNKLLNMLQNRSSAINEPNFDVRSNGTSGSNELLSILHRK
B3: Scd6, P45978 1-349 (protein)
chain: MSQYIGKTISLISVTDNRYVGLLEDIDSEKGTVTLKEVRCFGTEGRKNWGPEEIYPNPTVYNSVKFNGSEVKDLSILDANINDIQPVVPQMMPPASQFPPQQAQSPPQAQAQAHVQTNPQVPKPESNVPAAVAGYGVYTPTSTETATASMNDKSTPQDTNVNSQSRERGKNGENEPKYQRNKNRSSNRPPQSNRNFKVDIPNEDFDFQSNNAKFTKGDSTDVEKEKELESAVHKQDESDEQFYNKKSSFFDTISTSTETNTNMRWQEEKMLNVDTFGQASARPRFHSRGLGRGRGNYRGNRGNRGRGGQRGNYQNRNNYQNDSGAYQNQNDSYSRPANQFSQPPSNVEF
B4: Ccr4 (protein, UniProt P31384 1-837)
chain: MNDPSLLGYPNVGPQQQQQQQQQQHAGLLGKGTPNALQQQLHMNQLTGIPPPGLMNNSDVHTSSNNNSRQLLDQLANGNANMLNMNMDNNNNNNNNNNNNNNNGGGSGVMMNASTAAVNSIGMVPTVGTPVNINVNASNPLLHPHLDDPSLLNNPIWKLQLHLAAVSAQSLGQPNIYARQNAMKKYLATQQAQQAQQQAQQQAQQQVPGPFGPGPQAAPPALQPTDFQQSHIAEASKSLVDCTKQALMEMADTLTDSKTAKKQQPTGDSTPSGTATNSAVSTPLTPKIELFANGKDEANQALLQHKKLSQYSIDEDDDIENRMVMPKDSKYDDQLWHALDLSNLQIFNISANIFKYDFLTRLYLNGNSLTELPAEIKNLSNLRVLDLSHNRLTSLPAELGSCFQLKYFYFFDNMVTTLPWEFGNLCNLQFLGVEGNPLEKQFLKILTEKSVTGLIFYLRDNRPEIPLPHERRFIEINTDGEPQREYDSLQQSTEHLATDLAKRTFTVLSYNTLCQHYATPKMYRYTPSWALSWDYRRNKLKEQILSYDSDLLCLQEVESKTFEEYWVPLLDKHGYTGIFHAKARAKTMHSKDSKKVDGCCIFFKRDQFKLITKDAMDFSGAWMKHKKFQRTEDYLNRAMNKDNVALFLKLQHIPSGDTIWAVTTHLHWDPKFNDVKTFQVGVLLDHLETLLKEETSHNFRQDIKKFPVLICGDFNSYINSAVYELINTGRVQIHQEGNGRDFGYMSEKNFSHNLALKSSYNCIGELPFTNFTPSFTDVIDYIWFSTHALRVRGLLGEVDPEYVSKFIGFPNDKFPSDHIPLLARFEFMKTNTGSKKV
B5: Pop2 (protein, UniProt P39008 1-433)
chain: MQSMNVQPRVLAVGGEQFFSQRQASEQHQQQNMGPQVYSPKVNRARMFPQGMPVNTINGSVNQEMNNAYLLKQKNEPLLTQQQQQQQQQQQPFNIGTPVSVASLPPGLNVLQQQQQQQQQQQQQQQGVGLNRPLASQLPKHLTNQSMPPIFLPPPNYLFVRDVWKSNLYSEFAVIRQLVSQYNHVSISTEFVGTLARPIGTFRSKVDYHYQTMRANVDFLNPIQLGLSLSDANGNKPDNGPSTWQFNFEFDPKKEIMSTESLELLRKSGINFEKHENLGIDVFEFSQLLMDSGLMMDDSVTWITYHAAYDLGFLINILMNDSMPNNKEDFEWWVHQYMPNFYDLNLVYKIIQEFKNPQLQQSSQQQQQQQYSLTTLADELGLPRFSIFTTTGGQSLLMLLSFCQLSKLSMHKFPNGTDFAKYQGVIYGIDGDQ
B6: Suv3 (protein, UniProt P32580 26-737)
chain: YYHSEPHSIDLFHDKDWIVKRPKFLNLPKNEHSKLDIFQFNFNKSESNNVYLQDSSFKDNLDKAMQFIYNDKLSSLDAKQVPIKNLAWLKLRDYIYQQLKDPKLQAKTYVPSVSEIIHPSSPGNLISLLINCNKISNLVWKSVLKYSLSNNITTLDKFIHVLQQTFDHVYEQEILPMMTNTDDTDGAHNVDITNPAEWFPEARKIRRHIIMHIGPTNSGKTYRALQKLKSVDRGYYAGPLRLLAREVYDRFHAEKIRCNLLTGEEVIRDLDDRGNSAGLTSGTVEMVPINQKFDVVVLDEIQMMSDGDRGWAWTNALLGVVSKEVHLCGEKSVLPLVKSIVKMTGDKLTINEYERLGKLSVEEKPIKDGIKGLRKGDCVVAFSKKKILDLKLKIEKDTNLKVAVIYGSLPPETRVQQAALFNNGEYDIMVASDAIGMGLNLSIDRVVFTTNMKYNGEELMEMTSSQIKQIGGRAGRFKSRSASGGVPQGFITSFESKVLKSVRKAIEAPVEYLKTAVTWPTDEICAQLMTQFPPGTPTSVLLQTISDELEKSSDNLFTLSDLKSKLKVIGLFEHMEDIPFFDKLKLSNAPVKDMPMVTKAFTKFCETIAKRHTRGLLSYRLPFNLLDYNCIPNESYSLEVYESLYNIITLYFWLSNRYPNYFIDMESAKDLKYFCEMIIFEKLDRLKKNPYAHKPFGSTRGHLSSSRRRLRT

Tests used:
[1] = target: T1, Dhh1−GFP (S. cerevisiae (endogenous in BY4741-derived yeast)); assay: affinity purification with mass spectrometry; as a1, only the purifications from cells grown in +glucose media (YPD; P-bodies not induced)
[2] = target: T1, Dhh1−GFP (S. cerevisiae (endogenous in BY4741-derived yeast)); assay: affinity purification with mass spectrometry; Dhh1−GFP captured by anti-GFP IgG cross-linked to Protein-G Dynabeads from cleared lysate of cryo-ground yeast; RB buffer (30 mM K-Hepes pH 7.4, 150 mM KCl, 2 mM MgCl2, 0.2% NP-40, 0.1% Tween-20, 1 mM DTT, RNase inhibitor), 30 min at 4°; five purifications (two +glucose YPD, three 30 min −glucose YEP); hits filtered by SAINT against CRAPome controls
[3] = target: T1, Dhh1−GFP (S. cerevisiae (endogenous in BY4741-derived yeast)); assay: affinity purification with mass spectrometry; I-DIRT (SILAC): light Dhh1−GFP grindate mixed 1:1 with isotopically heavy BY4741 grindate before resuspending in RB buffer, anti-GFP immunoisolation; light:heavy peptide ratios
[4] = target: T2, Dhh1−GFP (S. cerevisiae (endogenous in …)); assay: as above; details: remark: other sources report otherwise
[5] = target: T2, Dhh1−GFP (S. cerevisiae (endogenous in …)); assay: affinity purification with mass spectrometry; Dhh1−GFP captured by anti-GFP IgG cross-linked to Protein-G Dynabeads from cleared lysate of cryo-ground yeast; RB buffer (30 mM K-Hepes pH 7.4, 150 mM KCl, 2 mM MgCl2, 0.2% NP-40, 0.1% Tween-20, 1 mM DTT, RNase inhibitor), 30 min at 4°; five purifications (two +glucose YPD, three 30 min −glucose YEP); hits filtered by SAINT against CRAPome controls; details: remark: other sources report otherwise

Molecule | binding [2] | also measured
Cdc33 (from UniProt P07260 1-213) | binds | binding [1]: no binding (only cells grown in +glucose media)
Ydj1 (from UniProt P25491 1-409) | binds | binding [1]: no binding (only cells grown in +glucose media)
B1 | binds | binding [3]: binds
B2 | – | binding [4]: binds; binding [5]: binds
B3 | – | binding [5]: no binding
B4 | no binding | –
B5 | no binding | –
B6 | no binding | –

Results are given in words; binding and its absence hold for the method and conditions named. In cells and extracts the contact can be indirect. Here binding means that the protein was enriched with, or labelled near, the bait; the list need not be complete. For part of these data: A no says only that the protein was not detected with the bait. Where a sequence is shown, tags or fusion partners need not be part of it.
